Measurements: patent publication US20100304407A1, “Fluorescence Lifetime and Fluorescence Assays” (priority 2007, published 2010)
Part of at least one peptide drawing is inferred or uncertain, most often the ends. For some assays here: At least one read-out could not be matched to a standard name with certainty. Residues, ends and D or L forms follow the SMILES beside them. *: point of attachment. X1 = O=C(CCCCCn1c2ccccc2c(=O)c2ccccc21)*

Assays:
Type in all cases: biochemical
PKB = PKB (Homo sapiens, UniProt P31749); assay: Fluorescence lifetime kinase time course, Global Fit with two lifetimes; conditions: PKB 0.1 U, saturated part of the time course, ACE14-labelled peptide, 8 mM Fe (III)/PMA chelate
PKA = PKA (Homo sapiens, UniProt P17612); assay: as above; conditions: PKA 0.1 U, saturated part of the time course, ACE14-labelled peptide, 8 mM Fe (III)/PMA chelate
CHK1 = biological target: T1, CHK1 (Homo sapiens, UniProt O14757); assay: Fluorescence lifetime kinase assay, Km of generic substrate peptide; conditions: peptide labelled with Ace 14, enzyme CHK1, lifetime assay; read-out: Ace14 Km
T1 sequence (O14757 1-476): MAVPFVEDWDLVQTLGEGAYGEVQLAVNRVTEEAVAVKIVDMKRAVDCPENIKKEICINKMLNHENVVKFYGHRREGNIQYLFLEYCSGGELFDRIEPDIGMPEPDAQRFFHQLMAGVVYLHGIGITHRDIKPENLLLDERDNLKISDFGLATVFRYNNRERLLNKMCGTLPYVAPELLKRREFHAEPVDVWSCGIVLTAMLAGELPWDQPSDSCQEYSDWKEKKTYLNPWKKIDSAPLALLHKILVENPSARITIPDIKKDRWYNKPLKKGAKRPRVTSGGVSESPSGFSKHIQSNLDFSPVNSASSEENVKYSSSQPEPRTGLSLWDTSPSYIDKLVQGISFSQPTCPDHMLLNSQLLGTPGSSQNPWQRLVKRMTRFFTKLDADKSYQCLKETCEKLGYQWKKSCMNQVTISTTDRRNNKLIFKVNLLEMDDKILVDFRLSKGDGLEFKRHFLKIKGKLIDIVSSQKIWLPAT

MAPKAPK2 = MAPKAPK2 (Homo sapiens, UniProt P49137); assay: Fluorescence lifetime kinase time course, Global Fit with two lifetimes; conditions: MAPKAP 0.1 U, saturated part of the time course, ACE14-labelled peptide, 8 mM Fe (III)/PMA chelate
CHEK1 = biological target: T2, CHEK1 (Homo sapiens, UniProt O14757); assay: as above; conditions: CHEK1 0.1 U, saturated part of the time course, ACE14-labelled peptide, 8 mM Fe (III)/PMA chelate
T2 sequence (O14757 1-476): T1 sequence (O14757 1-476)

## CC(C)C[C@H](NC(=O)[C@@H](NC(=O)[C@H](CCCNC(=N)N)NC(=O)[C@H](C)NC(=O)[C@H](CCCNC(=N)N)NC(=O)CCCCCn1c2ccccc2c(=O)c2ccccc21)[C@@H](C)O)C(=O)N[C@@H](CO)C(=O)N[C@@H](Cc1ccccc1)C(=O)N[C@@H](C)C(=O)N[C@@H](CCC(=O)O)C(=O)N1CCC[C@H]1C(=O)NCC(=O)O [Peptide 1, RARTLSFAEPG] (X1-RARTLSFAEPG-OH)
PKB
  A1/A1 + A2: 0.53

## CC(C)C[C@H](NC(=O)[C@H](CCCNC(=N)N)NC(=O)[C@H](CCCNC(=N)N)NC(=O)[C@H](CCCNC(=N)N)NC(=O)CCCCCn1c2ccccc2c(=O)c2ccccc21)C(=O)N[C@@H](CO)C(=O)N[C@@H](Cc1ccccc1)C(=O)N[C@@H](C)C(=O)N[C@@H](CCC(=O)O)C(=O)N1CCC[C@H]1C(=O)NCC(=O)O [Peptide 2, RRRLSFAEPG] (X1-RRRLSFAEPG-OH)
PKA
  A1/A1 + A2: 0.51

## CC(C)C[C@H](NC(=O)[C@H](CCCCN)NC(=O)[C@H](CCCCN)NC(=O)CCCCCn1c2ccccc2c(=O)c2ccccc21)C(=O)N[C@@H](CC(N)=O)C(=O)N[C@@H](CCCNC(=N)N)C(=O)N[C@H](C(=O)N[C@@H](CC(C)C)C(=O)N[C@@H](CO)C(=O)N[C@@H](Cc1ccccc1)C(=O)N[C@@H](Cc1ccccc1)C(=O)N[C@@H](C)C(=O)N[C@@H](CCC(=O)O)C(=O)N1CCC[C@H]1C(=O)NCC(=O)O)[C@@H](C)O [Peptide 3, KKLNRTLSFFAEPG] (X1-KKLNRTLSFFAEPG-OH)
CHK1
  Km: 9 µM
MAPKAPK2
  A1/A1 + A2: 0.595
CHEK1
  A1/A1 + A2: 0.58
